The supplement of paper PMC12819154, “High-throughput peptide-centric local stability assay extends protein–ligand identification to membrane proteins, tissues and bacteria” (Nature Structural & Molecular Biology, 2025)
This is one part of the list. Most entries show no effect beyond the scatter of the controls.

Chains of the proteins cited; added tags and fusions are not shown. Lines headed by an entry give the natural chain unless they say otherwise; changes in a name come on top.
UniProt Q96DC7: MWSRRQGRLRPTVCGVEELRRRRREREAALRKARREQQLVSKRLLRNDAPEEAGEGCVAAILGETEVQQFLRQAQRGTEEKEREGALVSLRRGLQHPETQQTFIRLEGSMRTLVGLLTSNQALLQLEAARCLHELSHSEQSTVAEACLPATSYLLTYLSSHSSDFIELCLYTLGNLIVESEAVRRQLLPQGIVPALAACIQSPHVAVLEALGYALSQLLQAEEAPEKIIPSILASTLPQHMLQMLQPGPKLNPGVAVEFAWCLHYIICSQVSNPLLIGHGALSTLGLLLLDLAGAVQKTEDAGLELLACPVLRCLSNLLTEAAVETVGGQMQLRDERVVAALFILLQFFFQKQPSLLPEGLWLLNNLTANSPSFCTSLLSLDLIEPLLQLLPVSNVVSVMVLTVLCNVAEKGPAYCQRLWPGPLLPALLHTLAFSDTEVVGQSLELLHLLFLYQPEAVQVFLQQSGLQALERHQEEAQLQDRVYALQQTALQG
UniProt Q92887: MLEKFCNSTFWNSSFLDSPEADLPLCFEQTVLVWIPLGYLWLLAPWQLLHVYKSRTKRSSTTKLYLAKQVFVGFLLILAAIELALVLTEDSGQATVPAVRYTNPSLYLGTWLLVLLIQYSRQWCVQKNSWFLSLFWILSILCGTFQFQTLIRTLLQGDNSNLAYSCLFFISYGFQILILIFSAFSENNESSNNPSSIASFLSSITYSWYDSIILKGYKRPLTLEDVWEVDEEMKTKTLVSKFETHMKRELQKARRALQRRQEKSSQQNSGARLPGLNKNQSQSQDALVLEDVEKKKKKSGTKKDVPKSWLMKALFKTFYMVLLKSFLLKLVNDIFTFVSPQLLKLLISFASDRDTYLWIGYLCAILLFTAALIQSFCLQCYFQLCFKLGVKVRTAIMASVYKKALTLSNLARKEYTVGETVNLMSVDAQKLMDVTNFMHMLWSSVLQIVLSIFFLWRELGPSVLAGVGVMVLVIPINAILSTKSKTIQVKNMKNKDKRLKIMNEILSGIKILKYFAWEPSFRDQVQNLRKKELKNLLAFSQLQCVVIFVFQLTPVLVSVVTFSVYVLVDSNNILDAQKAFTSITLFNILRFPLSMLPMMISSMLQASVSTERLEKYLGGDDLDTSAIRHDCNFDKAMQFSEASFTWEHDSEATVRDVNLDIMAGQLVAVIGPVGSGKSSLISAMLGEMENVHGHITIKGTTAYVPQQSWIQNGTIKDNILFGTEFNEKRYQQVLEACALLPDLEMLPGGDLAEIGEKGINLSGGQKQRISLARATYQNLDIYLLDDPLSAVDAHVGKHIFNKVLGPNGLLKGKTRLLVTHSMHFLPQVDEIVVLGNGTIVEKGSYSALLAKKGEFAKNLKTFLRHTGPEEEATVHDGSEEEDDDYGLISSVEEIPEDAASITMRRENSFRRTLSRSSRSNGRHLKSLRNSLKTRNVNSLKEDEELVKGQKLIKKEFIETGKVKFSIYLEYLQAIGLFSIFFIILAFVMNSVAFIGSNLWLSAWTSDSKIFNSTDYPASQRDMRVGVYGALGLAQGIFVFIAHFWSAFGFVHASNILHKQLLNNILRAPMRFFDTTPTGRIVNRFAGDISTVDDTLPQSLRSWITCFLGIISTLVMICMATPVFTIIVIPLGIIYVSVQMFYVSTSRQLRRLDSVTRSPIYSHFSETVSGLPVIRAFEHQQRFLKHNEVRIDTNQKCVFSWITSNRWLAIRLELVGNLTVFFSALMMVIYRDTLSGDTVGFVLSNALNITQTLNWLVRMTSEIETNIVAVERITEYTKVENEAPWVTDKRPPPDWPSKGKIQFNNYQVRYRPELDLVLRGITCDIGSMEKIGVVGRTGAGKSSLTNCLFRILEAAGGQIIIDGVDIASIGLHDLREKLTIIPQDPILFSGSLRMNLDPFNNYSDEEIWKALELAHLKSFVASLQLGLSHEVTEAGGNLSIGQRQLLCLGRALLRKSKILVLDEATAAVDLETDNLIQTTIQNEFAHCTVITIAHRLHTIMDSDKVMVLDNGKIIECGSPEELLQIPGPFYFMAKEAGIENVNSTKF
UniProt Q92625: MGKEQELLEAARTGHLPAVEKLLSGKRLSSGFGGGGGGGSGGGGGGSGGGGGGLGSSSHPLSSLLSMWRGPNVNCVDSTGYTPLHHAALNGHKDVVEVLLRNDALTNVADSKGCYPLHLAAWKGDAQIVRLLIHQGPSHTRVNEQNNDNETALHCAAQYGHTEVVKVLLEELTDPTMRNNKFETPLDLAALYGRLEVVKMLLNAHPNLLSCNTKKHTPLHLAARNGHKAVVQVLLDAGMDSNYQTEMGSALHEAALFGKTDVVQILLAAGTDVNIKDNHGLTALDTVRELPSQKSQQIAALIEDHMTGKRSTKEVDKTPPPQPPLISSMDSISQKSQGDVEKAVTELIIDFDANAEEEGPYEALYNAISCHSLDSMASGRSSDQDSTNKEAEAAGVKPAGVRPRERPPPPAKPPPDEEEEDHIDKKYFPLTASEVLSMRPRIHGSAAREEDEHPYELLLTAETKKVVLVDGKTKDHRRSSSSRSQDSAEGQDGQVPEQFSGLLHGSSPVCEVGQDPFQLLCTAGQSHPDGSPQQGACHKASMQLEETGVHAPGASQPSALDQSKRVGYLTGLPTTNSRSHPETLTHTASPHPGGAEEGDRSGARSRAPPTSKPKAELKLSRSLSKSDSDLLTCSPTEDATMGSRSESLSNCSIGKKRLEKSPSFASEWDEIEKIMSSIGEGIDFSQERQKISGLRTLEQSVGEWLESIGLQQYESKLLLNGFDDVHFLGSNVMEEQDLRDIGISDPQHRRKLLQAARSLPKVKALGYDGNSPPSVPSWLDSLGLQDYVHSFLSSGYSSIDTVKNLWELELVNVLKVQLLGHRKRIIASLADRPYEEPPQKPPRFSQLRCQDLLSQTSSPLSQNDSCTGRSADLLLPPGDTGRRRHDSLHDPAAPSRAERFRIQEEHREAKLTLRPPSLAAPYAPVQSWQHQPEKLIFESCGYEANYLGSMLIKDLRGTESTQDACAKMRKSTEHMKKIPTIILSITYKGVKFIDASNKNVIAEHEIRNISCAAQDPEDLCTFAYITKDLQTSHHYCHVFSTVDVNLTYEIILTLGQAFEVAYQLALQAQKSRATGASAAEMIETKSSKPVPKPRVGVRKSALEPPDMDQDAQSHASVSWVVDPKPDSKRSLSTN
UniProt Q96DG6: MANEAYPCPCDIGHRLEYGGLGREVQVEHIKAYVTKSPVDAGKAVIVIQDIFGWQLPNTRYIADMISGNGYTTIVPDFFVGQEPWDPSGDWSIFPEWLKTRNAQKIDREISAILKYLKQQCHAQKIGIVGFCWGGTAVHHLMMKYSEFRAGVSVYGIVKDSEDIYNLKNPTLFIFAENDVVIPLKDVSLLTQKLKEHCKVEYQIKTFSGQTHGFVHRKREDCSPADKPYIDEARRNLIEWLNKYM
UniProt Q96BZ9: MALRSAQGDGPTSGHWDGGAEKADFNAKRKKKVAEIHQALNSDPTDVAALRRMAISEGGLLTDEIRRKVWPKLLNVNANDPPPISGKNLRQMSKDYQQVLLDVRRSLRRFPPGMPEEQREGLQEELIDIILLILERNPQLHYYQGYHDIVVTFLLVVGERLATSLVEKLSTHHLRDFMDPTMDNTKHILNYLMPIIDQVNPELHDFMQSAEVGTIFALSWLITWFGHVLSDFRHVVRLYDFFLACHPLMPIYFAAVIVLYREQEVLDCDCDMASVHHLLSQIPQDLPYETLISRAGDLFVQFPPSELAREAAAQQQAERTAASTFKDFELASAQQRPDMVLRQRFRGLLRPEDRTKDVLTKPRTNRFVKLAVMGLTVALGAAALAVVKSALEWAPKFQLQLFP
UniProt Q96DN5: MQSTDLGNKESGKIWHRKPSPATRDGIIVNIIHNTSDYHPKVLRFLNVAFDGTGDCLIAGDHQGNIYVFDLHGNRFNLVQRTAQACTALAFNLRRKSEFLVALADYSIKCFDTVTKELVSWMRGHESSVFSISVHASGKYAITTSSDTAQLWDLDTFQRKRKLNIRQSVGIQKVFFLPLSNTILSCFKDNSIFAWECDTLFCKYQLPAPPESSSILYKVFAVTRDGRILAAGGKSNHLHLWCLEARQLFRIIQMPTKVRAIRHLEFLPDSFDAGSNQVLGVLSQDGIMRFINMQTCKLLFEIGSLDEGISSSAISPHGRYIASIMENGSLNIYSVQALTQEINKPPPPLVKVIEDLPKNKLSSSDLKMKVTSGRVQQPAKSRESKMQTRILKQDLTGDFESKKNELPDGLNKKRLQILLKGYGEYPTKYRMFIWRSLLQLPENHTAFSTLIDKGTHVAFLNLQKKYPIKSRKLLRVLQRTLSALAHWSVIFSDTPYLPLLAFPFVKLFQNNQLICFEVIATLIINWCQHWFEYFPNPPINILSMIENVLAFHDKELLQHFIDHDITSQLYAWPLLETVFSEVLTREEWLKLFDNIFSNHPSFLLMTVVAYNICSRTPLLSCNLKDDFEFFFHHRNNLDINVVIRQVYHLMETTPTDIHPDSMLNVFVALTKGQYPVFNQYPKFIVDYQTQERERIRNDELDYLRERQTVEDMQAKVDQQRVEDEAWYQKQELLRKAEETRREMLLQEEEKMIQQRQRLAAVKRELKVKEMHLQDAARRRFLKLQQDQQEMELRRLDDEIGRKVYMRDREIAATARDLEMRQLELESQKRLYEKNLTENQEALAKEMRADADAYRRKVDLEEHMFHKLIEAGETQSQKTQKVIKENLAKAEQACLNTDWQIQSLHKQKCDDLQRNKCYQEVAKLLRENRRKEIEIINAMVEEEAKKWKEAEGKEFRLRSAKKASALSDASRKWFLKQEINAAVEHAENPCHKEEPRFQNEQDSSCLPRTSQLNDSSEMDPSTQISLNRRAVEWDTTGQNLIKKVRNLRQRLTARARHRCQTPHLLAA
UniProt Q96C19: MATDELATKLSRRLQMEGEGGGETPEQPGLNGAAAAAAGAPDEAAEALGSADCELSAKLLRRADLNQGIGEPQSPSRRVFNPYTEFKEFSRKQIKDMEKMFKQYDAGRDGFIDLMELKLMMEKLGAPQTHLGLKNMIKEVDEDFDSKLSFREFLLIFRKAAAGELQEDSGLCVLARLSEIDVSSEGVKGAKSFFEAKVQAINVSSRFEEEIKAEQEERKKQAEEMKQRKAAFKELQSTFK
UniProt Q96ER3: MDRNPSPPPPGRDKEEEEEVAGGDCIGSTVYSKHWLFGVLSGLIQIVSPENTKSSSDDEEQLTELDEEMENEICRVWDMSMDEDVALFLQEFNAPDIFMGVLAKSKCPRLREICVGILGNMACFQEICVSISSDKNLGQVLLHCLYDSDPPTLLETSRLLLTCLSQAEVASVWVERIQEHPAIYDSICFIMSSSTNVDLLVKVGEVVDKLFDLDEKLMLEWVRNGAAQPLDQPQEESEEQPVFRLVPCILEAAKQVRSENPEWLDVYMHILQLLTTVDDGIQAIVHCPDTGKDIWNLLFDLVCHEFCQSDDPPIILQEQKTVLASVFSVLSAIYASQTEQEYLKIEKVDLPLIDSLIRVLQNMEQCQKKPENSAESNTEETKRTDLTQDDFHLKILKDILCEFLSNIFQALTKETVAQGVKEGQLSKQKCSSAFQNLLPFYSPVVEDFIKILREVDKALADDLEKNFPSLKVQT
UniProt Q96BZ8: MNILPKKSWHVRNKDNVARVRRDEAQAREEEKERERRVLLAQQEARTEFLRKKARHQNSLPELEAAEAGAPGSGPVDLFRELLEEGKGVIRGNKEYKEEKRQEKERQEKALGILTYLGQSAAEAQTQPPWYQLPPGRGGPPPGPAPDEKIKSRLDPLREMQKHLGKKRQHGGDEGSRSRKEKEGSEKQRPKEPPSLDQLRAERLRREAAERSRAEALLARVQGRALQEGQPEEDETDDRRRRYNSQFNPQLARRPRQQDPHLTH
UniProt Q96E39: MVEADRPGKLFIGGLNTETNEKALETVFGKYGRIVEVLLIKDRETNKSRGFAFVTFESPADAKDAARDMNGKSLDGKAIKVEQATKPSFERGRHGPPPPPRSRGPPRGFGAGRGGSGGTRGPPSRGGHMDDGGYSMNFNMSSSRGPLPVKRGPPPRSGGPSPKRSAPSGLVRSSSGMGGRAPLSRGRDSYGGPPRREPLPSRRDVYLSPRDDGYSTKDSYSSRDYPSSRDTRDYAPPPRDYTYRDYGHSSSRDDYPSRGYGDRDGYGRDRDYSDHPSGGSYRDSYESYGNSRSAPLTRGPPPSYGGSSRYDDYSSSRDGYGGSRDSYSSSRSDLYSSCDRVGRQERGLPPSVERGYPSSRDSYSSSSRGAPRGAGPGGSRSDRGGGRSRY
UniProt Q969M7: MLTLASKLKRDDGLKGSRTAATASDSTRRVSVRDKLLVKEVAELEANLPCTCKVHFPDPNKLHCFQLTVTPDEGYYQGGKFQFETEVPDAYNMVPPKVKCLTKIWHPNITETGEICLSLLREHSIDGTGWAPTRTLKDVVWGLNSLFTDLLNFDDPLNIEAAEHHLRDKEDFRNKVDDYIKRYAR

compound: Cc1nc(Nc2ncc(C(=O)Nc3c(C)cccc3Cl)s2)cc(N2CCN(CCO)CC2)n1 [dasatinib]; assay: log2 fold change of tryptic peptide abundance, ligand vs vehicle (limited proteolysis) (log2 ratio); higher = more trypsin-susceptible (destabilized); conditions: ligand concentration: 5 uM; sample: K562 cleared lysate

| Target | log2 fold change |
| --- | --- |
| ZMYND19 (peptide sequence: MEVDADGNGAK, peptide start residue: 40) (UniProt Q96E35) | 0.164 |
| RUBCN (peptide sequence: NLLPMYQEAEHGSFR, peptide start residue: 550) (UniProt Q92622) | 0.161 |
| L3MBTL2 (peptide sequence: KISSEPVPGEIIAVR, peptide start residue: 659) (UniProt Q969R5) | 0.138 |
| BRF1 (peptide sequence: ECISSQSSDPK, peptide start residue: 429) (UniProt Q92994) | -0.359 |
| UniProt Q96DY7 (peptide sequence: ASVCHYHGIEYCLDDR, peptide start residue: 651) | -0.157 |
| TMCO6 (peptide sequence: LRPTVCGVEELRR, peptide start residue: 9) (UniProt Q96DC7) | -0.769 |
| ARMC5 (peptide sequence: EGPALLLLSR, peptide start residue: 522) (UniProt Q96C12) | 0.122 |
| GGH (peptide sequence: NLDGISHAPNAVK, peptide start residue: 254) (UniProt Q92820) | 0.225 |
| ABCC2 (peptide sequence: KEFIETGK, peptide start residue: 954) (UniProt Q92887) | -0.0736 |
| UniProt Q96BD8 (peptide sequence: EFTTLKADK, peptide start residue: 218) | 0.525 |
| ANKS1A (peptide sequence: RVGYLTGLPTTNSR, peptide start residue: 565) (UniProt Q92625) | -0.497 |
| GOLGA1 (peptide sequence: NILTAQLQEMK, peptide start residue: 147) (UniProt Q92805) | -0.253 |
| UniProt Q96AX9 (peptide sequence: MAEFIGQTGTVHR, peptide start residue: 286) | 0.511 |
| GNPNAT1 (peptide sequence: VEDVVVSDECR, peptide start residue: 119) (UniProt Q96EK6) | -0.0415 |
| UniProt Q969H0 (peptide sequence: LDHGSEVR, peptide start residue: 172) | -0.1 |
| CREBBP (peptide sequence: SEPMEVDEKKPEVK, peptide start residue: 1043) (UniProt Q92793) | 0.133 |
| DPF3 (peptide sequence: EEESIQEIQR, peptide start residue: 135) (UniProt Q92784) | 0.117 |
| TCEAL4 (peptide sequence: KLENEGKTENK, peptide start residue: 40) (UniProt Q96EI5) | 0.627 |
| CORO2A (peptide sequence: QLELEIK, peptide start residue: 510) (UniProt Q92828) | 0.133 |

Quoted from the listing:
In log2 fold change, GNPNAT1 (peptide sequence: VEDVVVSDECR, peptide start residue: 119) (UniProt Q96EK6) is listed with -0.0415
In log2 fold change, UniProt Q96BD8 (peptide sequence: EFTTLKADK, peptide start residue: 218) is listed with 0.525

More results follow:

| Target | log2 fold change |
| --- | --- |
| CMBL (peptide sequence: YLKQQCHAQK, peptide start residue: 116) (UniProt Q96DG6) | 0.41 |
| AIDA (peptide sequence: EAQAQHNNSEFTEEQKK, peptide start residue: 45) (UniProt Q96BJ3) | 0.124 |
| TBC1D20 (peptide sequence: MAISEGGLLTDEIRR, peptide start residue: 53) (UniProt Q96BZ9) | 0.288 |
| UniProt Q96DN5 (peptide sequence: VKEMHLQDAAR, peptide start residue: 767) | -0.314 |
| EFHD2 (peptide sequence: RADLNQGIGEPQSPSR, peptide start residue: 62) (UniProt Q96C19) | 0.0774 |
| INTS12 (peptide sequence: SVSCDNVSK, peptide start residue: 376) (UniProt Q96CB8) | 0.361 |
| UniProt Q96DE5 (peptide sequence: KALFTYPK, peptide start residue: 33) | -0.15 |
| DNAJA3 (peptide sequence: GGPTVDPEELFR, peptide start residue: 176) (UniProt Q96EY1) | -0.126 |
| USP13 (peptide sequence: KFTFGLDWVPK, peptide start residue: 575) (UniProt Q92995) | -0.182 |
| SAAL1 (peptide sequence: VGEVVDKLFDLDEK, peptide start residue: 203) (UniProt Q96ER3) | 0.0935 |
| CCDC51 (peptide sequence: TAYLRAEDSER, peptide start residue: 166) (UniProt Q96ER9) | 0.15 |
| RPL36AL (peptide sequence: GKDSLYAQGR, peptide start residue: 29) (UniProt Q969Q0) | 0.0205 |
| LENG1 (peptide sequence: GGPPPGPAPDEK, peptide start residue: 138) (UniProt Q96BZ8) | -0.102 |
| RBMXL1 (peptide sequence: AIKVEQATKPSFER, peptide start residue: 78) (UniProt Q96E39) | 0.2 |
| S100PBP (peptide sequence: SLVVSTSSNK, peptide start residue: 268) (UniProt Q96BU1) | 0.311 |
| ITFG2 (peptide sequence: DVVLHQTSGR, peptide start residue: 239) (UniProt Q969R8) | 0.127 |
| UBE2F (peptide sequence: TAATASDSTR, peptide start residue: 19) (UniProt Q969M7) | 0.127 |
| DCPS (peptide sequence: DKIIFLHGK, peptide start residue: 59) (UniProt Q96C86) | 0.188 |
